# Results deposited as PubChem BioAssay AID1224826 (NIAID, 2016)
# Purpose: 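Regulators of Tlr4 signalling leading to Tnf-alpha expression in macrophages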 (primary screen)
# System: RAW264.7 G9 macrophages from mouse bearing reporters for p65 (GFP) and the Tnf promoter (mCherry)
# Reagent: siRNA pool against mouse genes, 100 nM
# Time to read-out: 16 h of LPS stimulation, after 2 days of siRNA transfection
# Conditions: bacterial lipopolysaccharide (Salmonella minnesota R595), 10 ng/ml
# Measured: 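Nuclear mCherry signal of the Tnf promoter reporter measured by imaging after background removal, scaled to each plate median and turned into robust z-scores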
# Direction: Tnf reporter robust z-score: higher = stronger Tnf promoter reporter signal after LPS
# Rule for the call: 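a well counts as active at a score of -1.3 or below (Tlr4 knock-down control median) or above 3 (raised signal); controls and wells holding fewer than 50 cells are excluded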
# Meaning of the calls: active = Tnf reporter clearly lowered or raised; inactive = no clear change in Tnf reporter
# The deposit covers about 17,000 reagents; shown is an unselected part. About 1,110 of all reagents (6.6%) were called active. 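Active means lowered or raised reporter signal; replicate intensities are raw and not normalised per plate.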 The numbers tell different reagents against one gene apart. Not all columns of the deposit are shown. Reagent sequences are not shown.
target gene,pool no.,Tnf reporter robust z-score,fewer than 50 cells in well,Outcome
Dusp4,1,1.09,enough cells in well,inactive
Smpd1,1,-0.52,enough cells in well,inactive
Thnsl2,1,,fewer than 50 cells per well; well left out of calls,inactive
Ush1g,1,,fewer than 50 cells per well; well left out of calls,inactive
Ccl21d,1,-0.37,enough cells in well,inactive
Parp16,1,,fewer than 50 cells per well; well left out of calls,inactive
Dnase1l1,1,,fewer than 50 cells per well; well left out of calls,inactive
Synj2,1,-0.61,enough cells in well,inactive
Cd40lg,1,0.93,enough cells in well,inactive
Ccdc134,1,,fewer than 50 cells per well; well left out of calls,inactive
Zfp819,1,,fewer than 50 cells per well; well left out of calls,inactive
Or9g4b,1,0.13,enough cells in well,inactive
Greb1,1,-0.27,enough cells in well,inactive
Flacc1,1,-1.41,enough cells in well,active
Naa10,1,-1.04,enough cells in well,inactive
Ifitm10,1,0.02,enough cells in well,inactive
Cbl,1,1.47,enough cells in well,inactive
Hoga1,1,,fewer than 50 cells per well; well left out of calls,inactive
Pnma1,1,0.33,enough cells in well,inactive
Ssh2,1,0.23,enough cells in well,inactive
C1qtnf12,1,-0.57,enough cells in well,inactive
Psenen,1,1.17,enough cells in well,inactive
Snrpe,1,,fewer than 50 cells per well; well left out of calls,inactive
Fbp1,1,0.64,enough cells in well,inactive
Slc22a12,1,1.95,enough cells in well,inactive
Atp6v0c,1,0.44,enough cells in well,inactive
Cndp2,1,0.08,enough cells in well,inactive
Tmprss7,1,0.5,enough cells in well,inactive
Gstcd,1,1.42,enough cells in well,inactive
Tmem132c,1,,fewer than 50 cells per well; well left out of calls,inactive
Cnpy1,1,1.01,enough cells in well,inactive
Eif2b4,1,-1.23,enough cells in well,inactive
Cyth1,1,0.07,enough cells in well,inactive
Chchd6,1,0.79,enough cells in well,inactive
Iah1,1,-1.06,enough cells in well,inactive
Vmn1r53,1,-0.83,enough cells in well,inactive
Ndufa3,1,-0.8,enough cells in well,inactive
Klhl18,1,2.25,enough cells in well,inactive
Fryl,1,-0.27,enough cells in well,inactive
Fryl,2,-0.06,enough cells in well,inactive

Only “fewer than 50 cells in well”, for 5 of the entries above:
Ssh2	enough cells in well
C1qtnf12	enough cells in well
Psenen	enough cells in well
Snrpe	fewer than 50 cells per well; well left out of calls
Fbp1	enough cells in well
